Measurements reported in patent EP3122861B1, “LIQUID DETERGENT COMPOSITIONS COMPRISING AN ALPHA-AMYLASE” (priority 2014, dated 2015).

Assay: Determination of log K by ITC (isothermal titration calorimetry)
Format: binding
Details: pH 10
Source text: Chelating agents can also be characterized by the binding constant of the chelating agent (chelator) and calcium ions. This constant can be determined by ITC (isothermal titration calorimetry) as described by AD Nielsen, CC Fuglsang and […], Analytical Biochemistry Vol. 314 (2003) page 227-234 and T Wiseman, S Williston, JF Brandts and L-N Lin, Analytical Biochemistry Vol. 179 (1989) page 131-137. All glassware and plastic bottles used are washed with a 1 % (w/w) EDTA solution and subsequently rinsed thoroughly in Chelex 100 treated ultrapure water (Milli-Q water). Solutions are stored in plastic bottles and kept at 5°C until use. […] • 125 μM chelant in 20 mM HEPES, pH 8 or 125 μM chelant in 20 mM glycine, pH 10 • 4 mM CaCl2 in 20 mM HEPES, pH 8 or 4 mM CaCl2 in 20 mM glycine, pH 10 • Ultrapure water (Milli-Q water) […] All solutions are degassed by stirring under vacuum before the experiments. INSTRUMENT: MCS-ITC (MicroCal Inc., Northampton, MA, USA) The reference cell is filled with ultrapure water (Milli-Q water). The sample cell is filled with the chelant solution at the selected pH and the syringe is filled with the calcium solution at the selected pH. The solutions are equilibrated to the desired temperature, e.g. 19°C. […] The obtained signals from the ITC are then integrated using the Origin software supplied by MicroCal Inc. To obtain the binding isotherms, regression routines are made using the same software package. […] Presently preferred is the "OneSites" model which gives the best fit for most of the commonly used chelating agents, i.e. the residuals are evenly distributed around zero. […] Alternatively, the chelating agents can be characterized by the binding constant of the chelating agent (chelator) and calcium ions. This constant can be determined by ITC (isothermal titration calorimetry) as described by AD Nielsen, CC Fuglsang and […], Analytical Biochemistry Vol. 314 (2003) page 227-234 and T Wiseman, S Williston, JF Brandts and L-N Lin, Analytical Biochemistry Vol. 179 (1989) page 131-137. The procedure for the determination of log K is described in detail above under "Materials and Methods". Using this procedure for determination of log K, the following log K values for several chelating agents were determined at pH 10 (Table 12.3). Table 12.3

SMILES	Log K relative to log K for citrate
C[C@@H](C(=O)O)N(CC(=O)O)CC(=O)O [MGDA, methylglycinediacetic acid or N,N'-bis(carboxymethyl)alanine]	0.33
O=C(O)CN(CCN(CC(=O)O)CC(=O)O)CCN(CC(=O)O)CC(=O)O [DTPA, diethylenetriaminepentaacetic acid]	2.7
O=C(O)CC(O)(CC(=O)O)C(=O)O [Citrate]	1.00
O=C(O)CN(CCOCCOCCN(CC(=O)O)CC(=O)O)CC(=O)O [EGTA, ethylene glycol tetraacetic acid]	3.0
O=C(O)CN(CCN(CC(=O)O)CC(=O)O)CC(=O)O [EDTA, ethylene diamine tetraacetate]	2.7
CC(O)(P(=O)(O)O)P(=O)(O)O [HEDP, 1-Hydroxyethylidene-1,1-Diphosphonic Acid]	2.0
